Assay results published in patent US12350350B2, “Hyperpolarisation in aqueous media via sabre” (UNIVERSITY OF YORK, priority 2017, dated 2025).

Experiments:
[1] = SABRE 1H hyperpolarisation, NMR signal enhancement in biphasic organic/D2O solvent
[2] = SABRE 13C and 15N hyperpolarisation of pyrazine in CDCl3/D2O; conditions: 20-fold excess pz, IMes iridium catalyst 5 mM, 0.3 ml CDCl3 + 0.3 ml D2O, NaCl 0.34 mmol
[3] = 1D/2D MRI of SABRE hyperpolarised substrate, distribution between organic and aqueous phase; conditions: 7-fold excess, CDCl3/D2O, NaCl, RARE protocol

With `Fc1cccnc1` [3-fluoropyridine] the “enhancement, organic phase compared with aqueous phase” value ([1]; CDCl3/D2O 0.3:0.3, NaCl 0.017 mmol) was “enhanced much better in organic phase”.
In the case of `[2H]c1cc([2H])c(C(N)=O)cn1` [d2-nicotinamide], the “enhancement in aqueous phase” value ([1]; D2O layer containing at least 4.5% (weight) of NaCl) is reported as “High enhancement”.
`c1cnccn1` [pyrazine] showed a 13C signal enhancement ([2]; transfer at 30 G) of 180 fold and a 15N signal enhancement ([2]; transfer at ~0 G in μ-metal shield) of 3000 fold.
For `c1ccnnc1` [pyridazine], the “2D MRI signal in the aqueous phase after phase separation” value [3] was “excellent signal enhancement” and the “2D MRI signal in the organic phase after phase separation” value [3] was “almost no hyperpolarised pyridazine response”.
